# Assay results from the supplement of paper PMC10338343.
# ± gives the standard deviation. Some of the results follow. The uncertainty is large for many entries.
# Tested on: EfPiwi piRISC loaded with L1MC piRNA (26 nt)
# Assay: pre-steady-state target cleavage rate (min^-1); guide: L1MC piRNA 5'p-UAACUAAAUACUAUGCAAGCUGUAGG; MIWI and MILI are mouse PIWI proteins and EfPiwi is from a freshwater sponge; tags in brackets are library labels; higher = faster piRNA-guided slicing of the target
# Details: auxiliary factor: 500 nM Ephydatia muelleri Gtsf1
# Method in brief: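 The pre-steady-state cleavage rate was derived from a burst-and-steady-state fit of Cleave-'n-Seq data. For these assays, 1 nM active affinity-purified piRISC loaded with a single synthetic guide was mixed with […] a transcribed, DNA-blocked target RNA library in HEPES–potassium acetate buffer at 33 °C, with or without 500 nM GTSF1 partner protein, for 0–8 or 0–960 min. Sequencing counts of uncleaved targets were normalised to depth and to weakly complementary targets, and k3 was capped at 0.0001 min^-1 after three trials were pooled.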
row,Sequence,pre-steady-state target cleavage rate
1,UCCUGGAACAGCUUGCAUAGAAUUUACUUA,0.00113 ± 0.0042
2,UCCUGCUACGGCUUGCAUAGUAUUUAGUUA,0.00972 ± 0.0027
3,UCCUGGAUGAGCUUGCAUAGUAUUUUGUUA,0.00491 ± 0.0017
4,UCCUCGUACAGCUUGCAUUGUAUUUAGUUA,0.0163 ± 0.004
5,UCCUGGAUGUCGAACGUAUGUUAUUUAGUUA,< 0.0001
6,UCCUCCUACAGCUUGCAUAGUAUUUCGUUA,0.00416 ± 0.0023
7,UCCUCCUACACGUUGCAUAGUAUUUAGUAA,0.00566 ± 0.0027

# Shown bar-delimited: part of the list above
row | Sequence | pre-steady-state target cleavage rate
2 | UCCUGCUACGGCUUGCAUAGUAUUUAGUUA | 0.00972 ± 0.0027
3 | UCCUGGAUGAGCUUGCAUAGUAUUUUGUUA | 0.00491 ± 0.0017
5 | UCCUGGAUGUCGAACGUAUGUUAUUUAGUUA | < 0.0001

# Same assay, conditions: auxiliary factor: none (no Gtsf1)
row,Sequence,pre-steady-state target cleavage rate
1,UCCUGGAUGUCGAACCAUAGAAAUUAGUUA,0.000101 ± 0.025
2,UCCUGGAUCAGCUUGCAUAGUAUGUUAGUUA,0.00269 ± 0.0043
3,UCCUGGAUGACCUUGCAUAGUAUUUAGUUA,0.00101 ± 0.0089
4,UCCUGGAUGAGGUUGCAUAGUAUUUAGUUA,0.00333 ± 0.0049
5,UCCUGCUACAGCUUGCAUAGUAUUCAGUUA,0.000887 ± 0.0079
6,UCCUGGUACAGCUUGCAUAGUAUUAAGUAA,0.000676 ± 0.014
7,UCCUGGAUGUGCUCGCAUAGUAUUUAGUUA,0.00133 ± 0.0076
8,UCCUGGAUGAGCUAGCAUAGUUUUUAGUUA,0.000163 ± 0.049
